Drawing on PMC9021192, this text covers binding for one molecule.

The target of this experiment is T1, p54nrb (nuclear RNA-binding protein 54 kDa) (human (endogenous in HeLa)) (UniProt Q15233).
T1 sequence: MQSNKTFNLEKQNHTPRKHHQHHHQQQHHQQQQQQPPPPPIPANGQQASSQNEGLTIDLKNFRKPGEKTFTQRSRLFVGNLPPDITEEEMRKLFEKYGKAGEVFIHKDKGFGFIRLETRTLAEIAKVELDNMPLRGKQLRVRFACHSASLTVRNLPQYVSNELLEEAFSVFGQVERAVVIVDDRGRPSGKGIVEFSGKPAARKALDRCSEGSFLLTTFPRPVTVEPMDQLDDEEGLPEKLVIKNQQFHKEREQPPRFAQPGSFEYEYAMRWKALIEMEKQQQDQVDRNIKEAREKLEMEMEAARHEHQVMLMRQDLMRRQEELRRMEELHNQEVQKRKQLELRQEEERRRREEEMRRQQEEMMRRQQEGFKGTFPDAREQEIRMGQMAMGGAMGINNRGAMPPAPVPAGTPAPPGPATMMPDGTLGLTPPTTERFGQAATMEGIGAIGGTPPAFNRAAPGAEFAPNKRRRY
The experiment in a line: co-IP; endogenous p54nrb immunoprecipitated from 1 mg HeLa lysate (1% Triton X-100 lysis buffer) with 1 µg antibody overnight at 4 °C and protein-G sepharose beads; same amount and species of IgG as control; immunoblot of caspase-2.

These are yes or no findings as the source states them, for the method shown. In cells and extracts the contact can be indirect. Some results given as binding are weak or reduced against the parent protein; the word gives no strength.

B1: caspase-2 (enzyme, UniProt P42575 1-452)
chain: MAAPSAGSWSTFQHKELMAADRGRRILGVCGMHPHHQETLKKNRVVLAKQLLLSELLEHLLEKDIITLEMRELIQAKVGSFSQNVELLNLLPKRGPQAFDAFCEALRETKQGHLEDMLLTTLSGLQHVLPPLSCDYDLSLPFPVCESCPLYKKLRLSTDTVEHSLDNKDGPVCLQVKPCTPEFYQTHFQLAYRLQSRPRGLALVLSNVHFTGEKELEFRSGGDVDHSTLVTLFKLLGYDVHVLCDQTAQEMQEKLQNFAQLPAHRVTDSCIVALLSHGVEGAIYGVDGKLLQLQEVFQLFDNANCPSLQNKPKMFFIQACRGDETDRGVDQQDGKNHAGSPGCEESDAGKEKLPKMRLPTRSDMICGYACLKGTAAMRNTKRGSWYIEALAQVFSERACDMHVADMLVKVNALIKDREGYAPGTEFHRCKEMSEYCSTLCRHLYLFPGHPPT
Turning to B1, the binding result was “binds”.
